Record: PubChem BioAssay AID1224830 (NIAID, 2016)
Purpose: 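Regulators of TLR4 signalling towards TNF-alpha in macrophage-like cells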 (primary screen). Cells: human THP-1 monocytic leukaemia cells, TNF dual-luciferase reporter clone, PMA-differentiated to macrophage-like cells. Knock-down reagent: siRNA pool against human genes, 50 nM. Time to read-out: LPS for 4 h, given about 3 days after siRNA transfection. Challenge: bacterial LPS (TLR4 ligand), 10 ng/ml. Measured: 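TNF firefly reporter luminescence divided by renilla, normalised to the plate median, then turned into a robust z-score for each replicate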. Direction: TNF reporter robust z-score: higher = stronger TNF reporter response to LPS. Rule for the call: 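a well is active when its z-score exceeds 2.8 or falls below -1.5; control wells carry no call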.
This is one part, drawn at random, of about 18,000 deposited reagents. Of all reagents, about 2,900 (16%) are marked active. 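Calls are made per well; low scores hint the gene aids the LPS response, high scores that it dampens it.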 Repeated entries: four replicate wells of each siRNA pool.

| gene knocked down | TNF reporter robust z-score | outcome |
| --- | --- | --- |
| CSPG5 | -1.41 | inactive |
| CSPG5 | -1.21 | inactive |
| CSPG5 | -1.97 | active |
| CSPG5 | 0.16 | inactive |
| CD63 | 2.66 | inactive |
| CD63 | 2.4 | inactive |
| CD63 | 0.32 | inactive |
| CD63 | 0.72 | inactive |
| PCK1 | -1.68 | active |
| PCK1 | 0.92 | inactive |
| PCK1 | 0.55 | inactive |
| PCK1 | 2.02 | inactive |
| ZNF597 | 0.31 | inactive |
| ZNF597 | 0.23 | inactive |
| ZNF597 | -0.06 | inactive |
| ZNF597 | 0.3 | inactive |
| DUSP15 | 1.2 | inactive |
| DUSP15 | 2.11 | inactive |
| DUSP15 | 0.91 | inactive |
| DUSP15 | 0.68 | inactive |
| SOAT1 | -0.67 | inactive |
| SOAT1 | 0.15 | inactive |
| SOAT1 | 0.02 | inactive |
| SOAT1 | 0.43 | inactive |
| SAMD8 | -1.19 | inactive |
| SAMD8 | 1.51 | inactive |
| SAMD8 | -1.08 | inactive |
| SAMD8 | 0.6 | inactive |
| SLC6A8 | 1.8 | inactive |
| SLC6A8 | 1.65 | inactive |
| SLC6A8 | 1.79 | inactive |
| SLC6A8 | -0.16 | inactive |
| MSMP | -0.88 | inactive |
| MSMP | 0.25 | inactive |
| MSMP | -1.14 | inactive |
| MSMP | -0.74 | inactive |
| SULT2A1 | -0.04 | inactive |
| SULT2A1 | 0.2 | inactive |
| SULT2A1 | 0.1 | inactive |
| SULT2A1 | 0.01 | inactive |
| LNX2 | 2.68 | inactive |
| LNX2 | 1.5 | inactive |
| LNX2 | 0.25 | inactive |
| LNX2 | 1.95 | inactive |
| FADS1 | -1.18 | inactive |
| FADS1 | -1.22 | inactive |
| FADS1 | -1.13 | inactive |
| FADS1 | -0.33 | inactive |
| IL19 | -1.06 | inactive |
| IL19 | -0.75 | inactive |
| IL19 | -0.62 | inactive |
| IL19 | -0.96 | inactive |
| OR5B17 | -0.77 | inactive |
| OR5B17 | -0.88 | inactive |
| OR5B17 | -0.97 | inactive |
| OR5B17 | -1.04 | inactive |
| CCR5 | -0.24 | inactive |
| CCR5 | 0.13 | inactive |
| CCR5 | 0.06 | inactive |
| CCR5 | 0.41 | inactive |
| SLC38A3 | -1.4 | inactive |
| SLC38A3 | -1.8 | active |
| SLC38A3 | -1.5 | inactive |
| SLC38A3 | -1.84 | active |
| GPR161 | 0.32 | inactive |
| GPR161 | 0.93 | inactive |
| GPR161 | 0.34 | inactive |
| GPR161 | 0.56 | inactive |
| ZBTB16 | -1.37 | inactive |
| ZBTB16 | -0.92 | inactive |
| ZBTB16 | -1.24 | inactive |
| ZBTB16 | -1.02 | inactive |

18 consecutive entries already listed:
| gene knocked down | TNF reporter robust z-score | outcome |
| --- | --- | --- |
| MSMP | -1.14 | inactive |
| MSMP | -0.74 | inactive |
| SULT2A1 | -0.04 | inactive |
| SULT2A1 | 0.2 | inactive |
| SULT2A1 | 0.1 | inactive |
| SULT2A1 | 0.01 | inactive |
| LNX2 | 2.68 | inactive |
| LNX2 | 1.5 | inactive |
| LNX2 | 0.25 | inactive |
| LNX2 | 1.95 | inactive |
| FADS1 | -1.18 | inactive |
| FADS1 | -1.22 | inactive |
| FADS1 | -1.13 | inactive |
| FADS1 | -0.33 | inactive |
| IL19 | -1.06 | inactive |
| IL19 | -0.75 | inactive |
| IL19 | -0.62 | inactive |
| IL19 | -0.96 | inactive |

More records:
| gene knocked down | TNF reporter robust z-score | outcome |
| --- | --- | --- |
| TRIM29 | -0.02 | inactive |
| TRIM29 | 0.07 | inactive |
| TRIM29 | 1.47 | inactive |
| TRIM29 | -0.26 | inactive |
| FAM180A | -0.85 | inactive |
| FAM180A | -0.73 | inactive |
| FAM180A | -1.01 | inactive |
| FAM180A | 0.54 | inactive |
| RTN4 | -1.83 | active |
| RTN4 | -1.2 | inactive |
| RTN4 | -1.66 | active |
| RTN4 | -1.01 | inactive |
| MOB4 | 1.48 | inactive |
| MOB4 | 0.65 | inactive |
| MOB4 | 0.04 | inactive |
| MOB4 | 1.4 | inactive |
| GORASP2 | 0.75 | inactive |
| GORASP2 | -0.31 | inactive |
| GORASP2 | 1.14 | inactive |
| GORASP2 | -0.79 | inactive |
| TULP3 | 0.7 | inactive |
| TULP3 | 0.39 | inactive |
| TULP3 | 0.83 | inactive |
| TULP3 | -0.07 | inactive |
| ARHGEF17 | 0.52 | inactive |
| ARHGEF17 | 0.17 | inactive |
| ARHGEF17 | 0.97 | inactive |
| ARHGEF17 | 1.05 | inactive |
| COPG2 | 1.59 | inactive |
| COPG2 | 1.39 | inactive |
| COPG2 | 4.15 | active |
| COPG2 | 1.64 | inactive |
| IFIH1 | -2.34 | active |
| IFIH1 | -0.01 | inactive |
| IFIH1 | -0.93 | inactive |
| IFIH1 | -0.26 | inactive |
| KCNJ8 | 0.59 | inactive |
| KCNJ8 | 0.25 | inactive |
| KCNJ8 | 0.61 | inactive |
| KCNJ8 | 0.17 | inactive |
